Laboratory results: PubChem BioAssay AID686943 (Drosophila RNAi Screening Center, 2013)
The screen tested about 23,000 reagents; this is an unselected part of those that have a named target and a result. 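Extra replicates exist only for a retested subset of genes; insulin dose and duration not given; both raised and lowered dpERK matter.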 Further read-outs or replicates are left out here. The record does not give: the amount of reagent, the time to read-out.

- Assay: 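Knockdowns that increase or decrease active ERK after insulin receptor stimulation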 (primary screen)
- Cell system: Drosophila S2R+ haemocyte-like cells expressing YFP-tagged ERK (Rolled)
- Knock-down reagent: long dsRNA against Drosophila genes
- Treatment: insulin stimulation versus unstimulated cells; dose and duration not given
- Detection: 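Per-plate z-scores of phospho-ERK immunostaining normalised to YFP-tagged ERK, measured with and without insulin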
- Direction: replicate 1, z-score of dpERK with insulin and replicate 2, z-score of dpERK with insulin: higher = more active ERK per ERK-YFP after insulin

target	amplicon	replicate 1, z-score of dpERK with insulin	replicate 2, z-score of dpERK with insulin
Ubqn	DRSC19581	0.44	0.1
CG15263	DRSC01974	0.46	0.33
CG6974	DRSC16160	-0.58	0.5
pst	DRSC11003	-0.64	-2.25
Ssu72	DRSC19572	-0.12	-0.44
CR14798	DRSC17956	-0.09	0.49
Ctu1	DRSC07069	-0.01	-0.04
dar1	DRSC08049	0.42	1.03
dar1	DRSC08233	-0.33	-0.37
Mco4	DRSC20061	-0.11	0.15
JTBR	DRSC08667	-0.01	-0.28
Ebp	DRSC04048	0.25	-0.21
CG14606	DRSC12550	0.57	0.86
Gr9a	DRSC22506	0.25	0.54
Yp1	DRSC18731	-0.02	-0.36

2 neighbouring entries already listed, for reference:
target	amplicon	replicate 1, z-score of dpERK with insulin	replicate 2, z-score of dpERK with insulin
Ssu72	DRSC19572	-0.12	-0.44
CR14798	DRSC17956	-0.09	0.49

Additional entries follow.
target	amplicon	replicate 1, z-score of dpERK with insulin	replicate 2, z-score of dpERK with insulin
CG6966	DRSC16156	-0.17	0.3
CG34353	DRSC14493	0.64	0.05
CG34353	DRSC14517	0.49	-0.25
CG34353	DRSC14563	0.15	-0.11
CG34353	DRSC15837	0.05	-0.1
CG34353	DRSC22429	0.73	0.37
retinin	DRSC09940	0.98	1.14
Marc	DRSC06614	0.47	-0.1
CG7546	DRSC08885	1.13	0.68
CG7546	DRSC10871	0.44	0.28
CG7546	DRSC22148	0.7	-0.31
Psi	DRSC07519	2.09	1.42
Naa20B	DRSC21442	-0.03	0.36
PGRP-LE	DRSC20137	-0.32	0.14
CG10459	DRSC05991	1.3	0.39
CG10459	DRSC22092	0.11	0.97
CG15930	DRSC18107	0.22	2.13
CG9498	DRSC03235	1.29	1.74
CG7213	DRSC10787	1.08	0.58
REPTOR-BP	DRSC02683	-0.5	-0.07
CG8509	DRSC20109	0.83	-0.25
fus	DRSC05569	1.7	0.19
fus	DRSC07107	-0.33	0.22
Trissin	DRSC14994	-0.23	-0.66
